Measured values taken from patent US7179824B2, “Arthropodicidal anthranilamides” (E. I. du Pont de Nemours and Company, priority 2001, dated 2007).
Some entries share one result that the patent states for a list of compounds.

Assays:
Type in all cases: in vivo
[1] = system: beet armyworm (Spodoptera exigua); assay: Test D: control of beet armyworm on corn plant, foliar spray; settings: sprayed at 50 ppm; corn plant with 10–15 1-day-old larvae; visually rated as in Test A
[2] = system: diamondback moth (Plutella xylostella); assay: Test A: control of diamondback moth on radish plant, foliar spray; settings: sprayed at 250 ppm; radish plant with 10–15 neonate larvae; held 6 days at 25° C., 70% relative humidity; visually assessed
[3] = system: fall armyworm (Spodoptera frugiperda); assay: Test B: control of fall armyworm on corn (maize) plant, foliar spray; settings: sprayed at 250 ppm; corn (maize) plant with 10–15 1-day-old larvae; visually rated as in Test A
[4] = system: tobacco budworm (Heliothis virescens); assay: Test C: control of tobacco budworm on cotton plant, foliar spray; settings: sprayed at 50 ppm; cotton plant with 8 2-day-old larvae; visually rated as in Test A

Measured: feeding damage (excellent levels of plant protection)

Cc1cc(Cl)cc(C(=O)NC(C)C)c1NC(=O)c1cc(Br)nn1-c1ncccc1Cl [Compound 3]
≤ 10%: all assays above
